This data set deals with PDGF-BB (platelet-derived growth factor BB) (Homo sapiens) (UniProt P01127). The experiment in a line: FP. The settings on record: 27-mer truncated to reduce affinity about 10-fold; Kd method not stated, competition assays by nitrocellulose filter binding in HBSMC pH 7.4, 1 mM Mg, 1 mM Ca, 37 C; purified recombinant protein; protein details: R&D Systems, carrier free lyophilized; label: 5'-32P; single-stranded DNA; variant of 20ta.

Protein sequences, listed by entry. Tags and fused reporters are not part of them. Residues count along the entry.
UniProt P01127, 82-190: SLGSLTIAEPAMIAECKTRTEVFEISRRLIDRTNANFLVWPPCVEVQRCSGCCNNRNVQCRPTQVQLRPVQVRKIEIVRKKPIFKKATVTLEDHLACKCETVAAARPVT

pKd: −log10 of the molar value. For at least one entry, the source does not settle the construct or the ends of the probe.

As to GGGCCGTTTCGGGTTACTTTTAGTCCC [20tb], the pKd was 9.30.

In general, pKd refers to the Kd on a negative log10 scale, so that one unit is a factor of ten.

The values are drawn from patent US20020197617, “Aptamers as reagents for high throughput screening” (GILEAD SCIENCES, INC., published 2002).
